PubChem BioAssay AID1259254, NCATS, 2017
Here is a random part of about 59,000 deposited reagents. About 1,550 of them (2.6%) count as active. 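G2 share is only a proxy for re-replication; each gene was hit by three separate siRNAs, and active genes were retested.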 Raw values are not corrected between plates. The record does not give: the amount of reagent.

Purpose: 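Genome-wide screen for genes that prevent DNA re-replication in cancer cells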 (primary screen)
System: human HCT116 colorectal cancer cells
Reagents: single siRNA against human genes
Timing: 3 days
Detection: 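Nuclei stained with Hoechst and imaged; cell-cycle phase assigned by DNA content; G2 share scaled per plate, non-targeting siRNA 0%, GMNN siRNA 100%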
Reading the numbers: G2 robust z-score and G2 cells, % of GMNN control: higher = more G2 cells, more excess DNA replication; raw share of cells in G2: higher = larger share of cells with G2 DNA content
Active means: 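Active siRNAs have a G2 robust z of 5 or more median absolute deviations over the median, which in these data means about 38% or higher of GMNN control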

The opening 8 records, ahead of the listing:
gene	PubChem SID	G2 robust z-score	G2 cells, % of GMNN control	raw share of cells in G2 (%)	outcome
CD48 (CD48 molecule)	SID160739465	1.08	10.6	7.74	inactive
CD48 (CD48 molecule)	SID160739476	-0.356	0.464	5.16	inactive
CD48 (CD48 molecule)	SID160739486	1.17	11.2	8.95	inactive
FAM76A (family with sequence similarity 76 member A)	SID160760760	-0.137	2	4.32	inactive
FAM76A (family with sequence similarity 76 member A)	SID160760761	0.218	4.5	4.47	inactive
FAM76A (family with sequence similarity 76 member A)	SID160760762	-0.651	-1.61	2.25	inactive
LOXL1 (lysyl oxidase like 1)	SID160776697	0.744	8.2	8.72	inactive
LOXL1 (lysyl oxidase like 1)	SID160776698	1.04	10.3	9.33	inactive

The listing, from the first entry:
gene	PubChem SID	G2 robust z-score	G2 cells, % of GMNN control	raw share of cells in G2 (%)	outcome
CD48 (CD48 molecule)	SID160739465	1.08	10.6	7.74	inactive
CD48 (CD48 molecule)	SID160739476	-0.356	0.464	5.16	inactive
CD48 (CD48 molecule)	SID160739486	1.17	11.2	8.95	inactive
FAM76A (family with sequence similarity 76 member A)	SID160760760	-0.137	2	4.32	inactive
FAM76A (family with sequence similarity 76 member A)	SID160760761	0.218	4.5	4.47	inactive
FAM76A (family with sequence similarity 76 member A)	SID160760762	-0.651	-1.61	2.25	inactive
LOXL1 (lysyl oxidase like 1)	SID160776697	0.744	8.2	8.72	inactive
LOXL1 (lysyl oxidase like 1)	SID160776698	1.04	10.3	9.33	inactive
LOXL1 (lysyl oxidase like 1)	SID160776699	0.642	7.48	5.66	inactive
SORBS1 (sorbin and SH3 domain containing 1)	SID160728784	1.99	17	11.6	inactive
SORBS1 (sorbin and SH3 domain containing 1)	SID160728785	0.466	6.25	6.71	inactive
SORBS1 (sorbin and SH3 domain containing 1)	SID160728787	-0.696	-1.93	2.45	inactive
ANKRD29 (ankyrin repeat domain 29)	SID160732547	-0.655	-1.64	2.5	inactive
ANKRD29 (ankyrin repeat domain 29)	SID160758512	0.177	4.21	5.24	inactive
ANKRD29 (ankyrin repeat domain 29)	SID160758513	-0.844	-2.97	2	inactive
PDCD5 (programmed cell death 5)	SID160721576	0.391	5.72	7.67	inactive
PDCD5 (programmed cell death 5)	SID160721577	1.17	11.2	8.33	inactive
PDCD5 (programmed cell death 5)	SID160721578	-0.737	-2.22	2.56	inactive
KLRC2 (killer cell lectin like receptor C2)	SID160776311	-1.2	-5.46	3.06	inactive
KLRC2 (killer cell lectin like receptor C2)	SID160776312	12.7	92.1	40.8	active
KLRC2 (killer cell lectin like receptor C2)	SID160776313	-0.222	1.4	4.72	inactive
NQO2 (N-ribosyldihydronicotinamide:quinone dehydrogenase 2)	SID160731297	1.91	16.4	8.6	inactive
NQO2 (N-ribosyldihydronicotinamide:quinone dehydrogenase 2)	SID160778111	-0.971	-3.86	3.87	inactive
NQO2 (N-ribosyldihydronicotinamide:quinone dehydrogenase 2)	SID160778112	-0.842	-2.96	4.3	inactive
GHRH (growth hormone releasing hormone)	SID160770784	0.743	8.19	8.21	inactive
GHRH (growth hormone releasing hormone)	SID160770795	0.868	9.08	8.71	inactive
GHRH (growth hormone releasing hormone)	SID160770804	0.54	6.76	6.07	inactive
EID2B (EP300 interacting inhibitor of differentiation 2B)	SID160756438	-0.862	-3.1	3.01	inactive
EID2B (EP300 interacting inhibitor of differentiation 2B)	SID160756440	-0.608	-1.31	2.69	inactive
EID2B (EP300 interacting inhibitor of differentiation 2B)	SID160756441	-0.899	-3.36	1.36	inactive
RC3H1 (ring finger and CCCH-type domains 1)	SID160758768	1.04	10.3	7.27	inactive
RC3H1 (ring finger and CCCH-type domains 1)	SID160758769	-0.279	1.01	3.22	inactive
RC3H1 (ring finger and CCCH-type domains 1)	SID160758770	-1.14	-5.05	1.31	inactive
ATP23	SID160753971	-0.593	-1.21	5.11	inactive
ATP23	SID160753972	-0.859	-3.08	3.65	inactive
ATP23	SID160753973	-0.702	-1.97	3.74	inactive
VRK1 (VRK serine/threonine kinase 1)	SID160718785	1.79	15.6	10.4	inactive
VRK1 (VRK serine/threonine kinase 1)	SID160718786	-1.01	-4.17	3.68	inactive
VRK1 (VRK serine/threonine kinase 1)	SID160718787	-0.767	-2.43	2.9	inactive
NOL11 (nucleolar protein 11)	SID160737269	1.78	15.5	10.2	inactive
NOL11 (nucleolar protein 11)	SID160737270	1.28	12	9.12	inactive
NOL11 (nucleolar protein 11)	SID160737271	1.23	11.6	7.36	inactive
ALAS2 (5'-aminolevulinate synthase 2)	SID160716114	-0.507	-0.603	4.86	inactive
ALAS2 (5'-aminolevulinate synthase 2)	SID160716125	1.02	10.1	7.77	inactive
ALAS2 (5'-aminolevulinate synthase 2)	SID160716133	5.28	40.1	18.4	active
ADAM10 (ADAM metallopeptidase domain 10)	SID160713827	-1.31	-6.25	3.38	inactive
ADAM10 (ADAM metallopeptidase domain 10)	SID160713837	-0.716	-2.07	4.17	inactive
ADAM10 (ADAM metallopeptidase domain 10)	SID160713846	0.0489	3.31	5.15	inactive
RPL10L (ribosomal protein L10 like)	SID160757894	4.83	36.9	16.2	inactive
RPL10L (ribosomal protein L10 like)	SID160757897	1.26	11.8	6.57	inactive
RPL10L (ribosomal protein L10 like)	SID160757898	-0.494	-0.511	2.89	inactive
PKHD1 (PKHD1 ciliary IPT domain containing fibrocystin/polyductin)	SID160714389	-0.994	-4.02	3.26	inactive
PKHD1 (PKHD1 ciliary IPT domain containing fibrocystin/polyductin)	SID160714390	1.38	12.7	9.23	inactive
PKHD1 (PKHD1 ciliary IPT domain containing fibrocystin/polyductin)	SID160714391	8.9	65.6	27.1	active
KCNH5 (potassium voltage-gated channel subfamily H member 5)	SID160738436	-0.0172	2.85	6.32	inactive
KCNH5 (potassium voltage-gated channel subfamily H member 5)	SID160738437	-0.386	0.252	4.87	inactive
KCNH5 (potassium voltage-gated channel subfamily H member 5)	SID160738438	0.144	3.98	5.93	inactive
SUMF2 (sulfatase modifying factor 2)	SID160737146	-0.673	-1.76	3.75	inactive
SUMF2 (sulfatase modifying factor 2)	SID160737147	-0.299	0.863	4.31	inactive
SUMF2 (sulfatase modifying factor 2)	SID160737148	0.0161	3.08	4.38	inactive
S100A9 (S100 calcium binding protein A9)	SID160716297	-0.885	-3.26	2.17	inactive
S100A9 (S100 calcium binding protein A9)	SID160716298	-1.29	-6.08	2	inactive
S100A9 (S100 calcium binding protein A9)	SID160731682	0.152	4.04	4.57	inactive
GRXCR2 (glutaredoxin and cysteine rich domain containing 2)	SID160733808	-0.173	1.75	3.66	inactive
GRXCR2 (glutaredoxin and cysteine rich domain containing 2)	SID160768813	-0.368	0.375	3.78	inactive
GRXCR2 (glutaredoxin and cysteine rich domain containing 2)	SID160768814	-0.884	-3.25	2.1	inactive
HCFC1 (host cell factor C1)	SID160774873	-0.374	0.335	5.17	inactive
HCFC1 (host cell factor C1)	SID160774874	-1.22	-5.61	3.55	inactive
HCFC1 (host cell factor C1)	SID160774875	4.23	32.8	16.2	inactive
